Source: paper PMC7819943, “Rice protein-binding microarrays: a tool to detect cis-acting elements near promoter regions in rice”
Some of the results follow.

Protein sequences, listed by entry. Tags and fused reporters are not part of them.
UniProt Q0JBA9, entry or part of it: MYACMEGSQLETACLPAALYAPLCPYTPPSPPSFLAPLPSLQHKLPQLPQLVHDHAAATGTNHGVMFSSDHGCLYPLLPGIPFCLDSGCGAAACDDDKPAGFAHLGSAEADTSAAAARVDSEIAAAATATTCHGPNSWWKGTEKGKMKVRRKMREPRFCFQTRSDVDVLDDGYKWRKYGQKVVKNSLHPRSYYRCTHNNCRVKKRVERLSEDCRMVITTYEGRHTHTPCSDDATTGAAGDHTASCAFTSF

Molecular target: OsWRKY34 (Oryza sativa, UniProt Q0JBA9 1-250)
Assay: protein-binding microarray (RPBM); PBS, 2% BSA, 51.3 ng/ul salmon testes DNA, 50 uM zinc acetate, 200 nM TF, 25 C, 1 h; high values mean tight binding
Conditions: protein: recombinant; tags: N-terminal polyhistidine and DsRed monomer fusion (pET32a); label: CyDye5-dUTP incorporated in the synthesized complementary strand; 3' TTTTT single-stranded linker to array surface; dsDNA, one strand shown
Summary of the method: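 Transcription factors were made in E. coli BL21-CodonPlus as N-terminal fusions to a polyhistidine tag and DsRed, then purified on Ni–NTA. After primer extension with Cy5-dUTP and blocking with 2% BSA, a custom Agilent array was exposed for 1 h at 25 °C to 200 nM protein in PBS, 2% BSA, salmon testes DNA and 50 µM zinc acetate. Washed arrays were scanned on an Axon 4000B, and the binding signal is per-feature fluorescence intensity in arbitrary units.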

Sequence	binding signal
GATACGGCTACACTTTTTTCTCCCTTCCATTCCATTCCATCGGAGTCACCTAGTGCAG	10200 fluorescence intensity (a.u.)
TCTACCCGCTCCACGCCGCCTCGTCATCCCTTCATTACTACGGAGTCACCTAGTGCAG	9410 fluorescence intensity (a.u.)
GCTTTCCATTTGCCAGCCGGAGTGCTCTCTATCGCCGAGGCGGAGTCACCTAGTGCAG	10200 fluorescence intensity (a.u.)
TTGGTCTGTTTCTTGGGTTGGCATTATTGCAAGATTTGGACGGAGTCACCTAGTGCAG	10400 fluorescence intensity (a.u.)
GTCAGCCCCGAGCTTCATCGCTGTCGCGCATCTTGTCTCTCGGAGTCACCTAGTGCAG	8820 fluorescence intensity (a.u.)
CATCCACTATATAGTAGTGTCACCACCTCTCGTTCTCGTTCGGAGTCACCTAGTGCAG	9510 fluorescence intensity (a.u.)
GATGGGAAATGGGAGGTGGATTGGATTGGATGGGAACTGGCGGAGTCACCTAGTGCAG	8400 fluorescence intensity (a.u.)
TCGACCAGCCGCAATTTGCTGTAGTTTTTAAACTTCATGTCGGAGTCACCTAGTGCAG	8050 fluorescence intensity (a.u.)
CATAGTCGTCTTCCTCGATCAATCCGCTCCGCTCCGTCTTCGGAGTCACCTAGTGCAG	8440 fluorescence intensity (a.u.)
ATACTTAATTGTGTTTCATGATGAATCGTTGACCGTTGAGCGGAGTCACCTAGTGCAG	10100 fluorescence intensity (a.u.)
ATCACTACGCTCCTTGCTTTTCTGCGCGATATGATTCTGACGGAGTCACCTAGTGCAG	12900 fluorescence intensity (a.u.)
GAACTCTTTGCATTATTCTTGGAAGGCCCTATATACAATTCGGAGTCACCTAGTGCAG	10100 fluorescence intensity (a.u.)
ATTTCATTCATATGCATTAAAACTAGCTTGGAATAATTTTCGGAGTCACCTAGTGCAG	8120 fluorescence intensity (a.u.)
ATACTCCCTCCGTCCCCAAGGTTGGCTTTTTTTTTTTGAGCGGAGTCACCTAGTGCAG	9810 fluorescence intensity (a.u.)
TAGCACTAAAACGAGAGGCCTTTTGATTTAGATTTTGCCACGGAGTCACCTAGTGCAG	21900 fluorescence intensity (a.u.)
TATTGTTGGGTATTTGGTTTTCTCTCCACGCTTGTATATACGGAGTCACCTAGTGCAG	10100 fluorescence intensity (a.u.)
AGTCCCATGTGAGTTATCCATATAAACCTAAGTCTGCTCACGGAGTCACCTAGTGCAG	8400 fluorescence intensity (a.u.)
ATTCTCTTATTTTTCCTCTTTATTAACCGATTTGGTTCAGCGGAGTCACCTAGTGCAG	8640 fluorescence intensity (a.u.)
TCCTCCTCCGTCCATCGCAGCTACTGCCTCCTTCTTCTTCCGGAGTCACCTAGTGCAG	8030 fluorescence intensity (a.u.)
ACAATCCGATCTTATTTGCTCTAGCTTTGTCTCTCTCCAACGGAGTCACCTAGTGCAG	9810 fluorescence intensity (a.u.)
GCCGCCTCCGCCATCGCCTCCGCCACCTCCACCATCGTCGCGGAGTCACCTAGTGCAG	8960 fluorescence intensity (a.u.)

Sequence	binding signal
TGAGTTTCTATTTGGTTTGGTGAGAATGCATTTCATATCTCGGAGTCACCTAGTGCAG	9580 fluorescence intensity (a.u.)
GCTGCCCCGCGCGCGCCAGGCGCCACCCTCGTCTCGTCGTCGGAGTCACCTAGTGCAG	8810 fluorescence intensity (a.u.)
TGTTGTGCTTGCTGATGTGTTGGAAATTCCACCCTTTTGTCGGAGTCACCTAGTGCAG	8490 fluorescence intensity (a.u.)
TTCATTCCTTTAGCCATGCTGCTGCGTTTATTTTGCCACTCGGAGTCACCTAGTGCAG	10400 fluorescence intensity (a.u.)
TACTCGCGCCCACGGCTTTCACTCGCTCCGTCGGTTAAAACGGAGTCACCTAGTGCAG	8670 fluorescence intensity (a.u.)
CCCTTGGCCTATATACTCTCTCTCTCTCTTCTCGCCCCACCGGAGTCACCTAGTGCAG	8620 fluorescence intensity (a.u.)
AAATGGTCTAACACTTGATGATGTTTCACTTCCCCAGTATCGGAGTCACCTAGTGCAG	10600 fluorescence intensity (a.u.)
TACAACTGAGTTCATTTCGCCGTCAATTCGCATCAATTTTCGGAGTCACCTAGTGCAG	8610 fluorescence intensity (a.u.)
CCCGTTCTTTCTGTATGATGATCAATTTTTTAGACTAAACCGGAGTCACCTAGTGCAG	8720 fluorescence intensity (a.u.)
CTGTTTTTTTTTTCTTTTTTTTCTTTTTTTCTTTTTTCTACGGAGTCACCTAGTGCAG	9590 fluorescence intensity (a.u.)
CTTCGCTTCGCTGGCCCTCTGCTTTGTTCTTGACCCTTGGCGGAGTCACCTAGTGCAG	9420 fluorescence intensity (a.u.)
GTTTCACAATGTAAGTCATTCTAGCATTTTTCACATTCATCGGAGTCACCTAGTGCAG	9340 fluorescence intensity (a.u.)
GTACCCATAATCTCCACAAGTCTTTATCTCTCCTCAAATTCGGAGTCACCTAGTGCAG	8360 fluorescence intensity (a.u.)
TTGTGCATGTGTGGGAAGTGGTACTCTTTTTCTTAGCATTCGGAGTCACCTAGTGCAG	8810 fluorescence intensity (a.u.)
TCGTCGTCGACTCGTCGTGGCCGCCGGCAACTCACGCCCACGGAGTCACCTAGTGCAG	8150 fluorescence intensity (a.u.)
CTGCTACAATCGCCATAATTCTCTAGTTTCGTACACCTGACGGAGTCACCTAGTGCAG	8320 fluorescence intensity (a.u.)
AGATCCACCATGCCACCACCTGCTGCTCCAAGCCGTCGTTCGGAGTCACCTAGTGCAG	8360 fluorescence intensity (a.u.)
TCTCTCTCTTCTTCGCGTCGATTTCGTGCACTTCAGTTTCCGGAGTCACCTAGTGCAG	14500 fluorescence intensity (a.u.)
CAGTTTGGGAGGGCTGATACTGCATGCAGTCATCAAAATACGGAGTCACCTAGTGCAG	10600 fluorescence intensity (a.u.)
GTTGTCTCATGTCTAGCCTAGATCTGTACTTATGAATTTTCGGAGTCACCTAGTGCAG	11500 fluorescence intensity (a.u.)
CGTCCGTGCCGTCGATGATGCCTGTGGAGTGGTGATCCCGCGGAGTCACCTAGTGCAG	8520 fluorescence intensity (a.u.)

Sequence	binding signal
CTTCCGTTCTTCTCTTGTTTACCATATAAGGGCATGTACACGGAGTCACCTAGTGCAG	11300 fluorescence intensity (a.u.)
ATTTTCTTTTGCTCAGTTCGACACATAGACATCTGAGGCTCGGAGTCACCTAGTGCAG	8030 fluorescence intensity (a.u.)
AGGGGAGAGAAAGAGAGAGGAGGGAGGGAGGGAGGAGGAACGGAGTCACCTAGTGCAG	10800 fluorescence intensity (a.u.)
TATCCAACTCCGCGTCCGTCCAGCTCTGCTTCCTACACAACGGAGTCACCTAGTGCAG	8410 fluorescence intensity (a.u.)
GCCCTACTTTCTTCAGTAGTTTGAAACCTTTCTGCGCCACCGGAGTCACCTAGTGCAG	9880 fluorescence intensity (a.u.)
CCTACCGGATCCTGGTCGCCGTCGTCGCCTGCCTCTTCGTCGGAGTCACCTAGTGCAG	9350 fluorescence intensity (a.u.)
GGCTTTGTAGGCTATGGTCGATGTGTTGGTGGTGAAATTCCGGAGTCACCTAGTGCAG	8020 fluorescence intensity (a.u.)
CTGGGTTTTTTCTGGTGGGTCAGTACGCATGCGCTCCTCTCGGAGTCACCTAGTGCAG	10900 fluorescence intensity (a.u.)
ACTGCACTCTGCTTGCCATATCTGAAGTATGTCTATTGGCCGGAGTCACCTAGTGCAG	9590 fluorescence intensity (a.u.)
ATTCTAAATTCCAATTCGTTCTTTCTCGGGACCCTAGACTCGGAGTCACCTAGTGCAG	8940 fluorescence intensity (a.u.)
ATATGCTTCTGTTCCCTTTTACAATTTGATTGCTTCCTTTCGGAGTCACCTAGTGCAG	9480 fluorescence intensity (a.u.)
TTTTCGGCCAAATATTCCCGCGCCATCTCCGCTTTGTCAGCGGAGTCACCTAGTGCAG	14000 fluorescence intensity (a.u.)
ACTTTGGACCATTTTATCTTCTTATATACTATATATTTTACGGAGTCACCTAGTGCAG	12300 fluorescence intensity (a.u.)
GCTCCCGCGCCCGTTCCAGCTCGCCCGCTCTAGCTTCGCGCGGAGTCACCTAGTGCAG	9400 fluorescence intensity (a.u.)
CTAGCTTAATTCTGTTTTCATCGTTGTTGGTTTACTTTGACGGAGTCACCTAGTGCAG	8880 fluorescence intensity (a.u.)
TCACCTTCAACGCCGTGTTCAGCGGCCTCGTCGGCATCTTCGGAGTCACCTAGTGCAG	8310 fluorescence intensity (a.u.)
GCAACCATAAGTTTCCACGTCCAACTTTTTATCGTCCGTCCGGAGTCACCTAGTGCAG	10100 fluorescence intensity (a.u.)
TCTTTCCACTTCGTTCCACCTCTCCTCCGTGCAAAATCCCCGGAGTCACCTAGTGCAG	8090 fluorescence intensity (a.u.)
ATATGAAACTTAAGTTCTTTTTTTTCTCAAAAAATCCTTCCGGAGTCACCTAGTGCAG	8090 fluorescence intensity (a.u.)
CTATCTATATCTATCTATCTATCTTTCTATACCTATACTACGGAGTCACCTAGTGCAG	9100 fluorescence intensity (a.u.)
TTTTCTCTTGAAAATATTAGTTTTTTCACTTCCTATTTTCCGGAGTCACCTAGTGCAG	8580 fluorescence intensity (a.u.)

Sequence	binding signal
TGTTCATCTTGCTCGTTCCTCCTCTCGCAGTCGCAGGTCGCGGAGTCACCTAGTGCAG	8980 fluorescence intensity (a.u.)
CCTCTCCTCCTCACTGATGCCTCTCCTGTCCTCGAGCGGTCGGAGTCACCTAGTGCAG	8600 fluorescence intensity (a.u.)
ATACTAGATTAATAGATATCTCTAACCTTTTTATCGCGTGCGGAGTCACCTAGTGCAG	8380 fluorescence intensity (a.u.)
TAGTTTCTTTTTTACCTTGTTACGGCCCCACTTTTATTTTCGGAGTCACCTAGTGCAG	10700 fluorescence intensity (a.u.)
GGTTGGTTCCGTCCCTCTCATGTCGCTGTTTATACCGTTGCGGAGTCACCTAGTGCAG	12400 fluorescence intensity (a.u.)
TGAGTTGCCATTAGGATTTTTTTTCTTCTGTCTCGCCATGCGGAGTCACCTAGTGCAG	10800 fluorescence intensity (a.u.)
GATACTGTAGTCAATATATTTTTAATGTTACATTGTTTTACGGAGTCACCTAGTGCAG	8220 fluorescence intensity (a.u.)
AGCAAGCTATACACCTCTCTTTCTCTCCTCTCTATCTTTCCGGAGTCACCTAGTGCAG	10300 fluorescence intensity (a.u.)
CCTTCACCATTCGCCACCAACACACCGTTAGGCTCGACAACGGAGTCACCTAGTGCAG	10600 fluorescence intensity (a.u.)
ACCTAGATCCACCTCGTTAGTTTATTTTGTGAGAGTGCTCCGGAGTCACCTAGTGCAG	9140 fluorescence intensity (a.u.)
CGCTTTCCTCTCCGGCAACGACCTCGCAGCTGTGGCCACCCGGAGTCACCTAGTGCAG	18600 fluorescence intensity (a.u.)
ATCAGTGACGACCATGCTCGCGACATCAACCGATCAGCTTCGGAGTCACCTAGTGCAG	9340 fluorescence intensity (a.u.)
GAACGCCAATGTTCGCTTCACCTCCCAATTGCAGTTCACACGGAGTCACCTAGTGCAG	10400 fluorescence intensity (a.u.)
GATTAAGTCCTTACCTACTATTCGCGTCTTGGCTCACGCACGGAGTCACCTAGTGCAG	9120 fluorescence intensity (a.u.)
ATTTTCAGTGAATACTCAAGCTTTATTTCTGTTTATTGAACGGAGTCACCTAGTGCAG	9650 fluorescence intensity (a.u.)
TTTCCATGATTCCATCTCCTCCATTCCCATCCGCCCGCATCGGAGTCACCTAGTGCAG	8600 fluorescence intensity (a.u.)
ACACCCGCATATGATACCCTATGTAATACCCGATGTGATACGGAGTCACCTAGTGCAG	8150 fluorescence intensity (a.u.)
CCTCTTGTTCGTCTTGCTCTGTTTCTTTCTTGTTCTCTCCCGGAGTCACCTAGTGCAG	9550 fluorescence intensity (a.u.)
ACACACACACATCGTTGCAGCCTCGCACCGCCCGATAATACGGAGTCACCTAGTGCAG	8780 fluorescence intensity (a.u.)
CTCTTCTCCAGTTCTCTATTTCTTCCACTTCTCTCTTTCTCGGAGTCACCTAGTGCAG	11000 fluorescence intensity (a.u.)
GATAACCGTAGGCCGTAGCCGCGTCCATCTCGCCCTCGCCCGGAGTCACCTAGTGCAG	8630 fluorescence intensity (a.u.)

A portion from further up:
Sequence	binding signal
ACCTAGATCCACCTCGTTAGTTTATTTTGTGAGAGTGCTCCGGAGTCACCTAGTGCAG	9140 fluorescence intensity (a.u.)
CGCTTTCCTCTCCGGCAACGACCTCGCAGCTGTGGCCACCCGGAGTCACCTAGTGCAG	18600 fluorescence intensity (a.u.)
ATCAGTGACGACCATGCTCGCGACATCAACCGATCAGCTTCGGAGTCACCTAGTGCAG	9340 fluorescence intensity (a.u.)
GAACGCCAATGTTCGCTTCACCTCCCAATTGCAGTTCACACGGAGTCACCTAGTGCAG	10400 fluorescence intensity (a.u.)
GATTAAGTCCTTACCTACTATTCGCGTCTTGGCTCACGCACGGAGTCACCTAGTGCAG	9120 fluorescence intensity (a.u.)
ATTTTCAGTGAATACTCAAGCTTTATTTCTGTTTATTGAACGGAGTCACCTAGTGCAG	9650 fluorescence intensity (a.u.)
